Measurements from publication PMC12075686, “Structural basis of phosphorylation-independent nuclear import of CIRBP by TNPO3” (Nature Communications, 2025).
Results are given in words; binding and its absence hold for the method and conditions named. Some entries that bind do so weakly or less than the wild type.

Experiments:
[1] = molecular target: T1, Transportin 3 (TNPO3) C511A mutant (human) (UniProt Q9Y5L0); assay: ITC; 100 µM ligand in the syringe injected (28 x 10 µL) into 10 µM TNPO3 (WT or C511A) in the cell; 25 °C; 50 mM Tris-HCl pH 7.5, 150 mM NaCl, 2 mM TCEP, 0.04% NaN3; both purified
T1 sequence: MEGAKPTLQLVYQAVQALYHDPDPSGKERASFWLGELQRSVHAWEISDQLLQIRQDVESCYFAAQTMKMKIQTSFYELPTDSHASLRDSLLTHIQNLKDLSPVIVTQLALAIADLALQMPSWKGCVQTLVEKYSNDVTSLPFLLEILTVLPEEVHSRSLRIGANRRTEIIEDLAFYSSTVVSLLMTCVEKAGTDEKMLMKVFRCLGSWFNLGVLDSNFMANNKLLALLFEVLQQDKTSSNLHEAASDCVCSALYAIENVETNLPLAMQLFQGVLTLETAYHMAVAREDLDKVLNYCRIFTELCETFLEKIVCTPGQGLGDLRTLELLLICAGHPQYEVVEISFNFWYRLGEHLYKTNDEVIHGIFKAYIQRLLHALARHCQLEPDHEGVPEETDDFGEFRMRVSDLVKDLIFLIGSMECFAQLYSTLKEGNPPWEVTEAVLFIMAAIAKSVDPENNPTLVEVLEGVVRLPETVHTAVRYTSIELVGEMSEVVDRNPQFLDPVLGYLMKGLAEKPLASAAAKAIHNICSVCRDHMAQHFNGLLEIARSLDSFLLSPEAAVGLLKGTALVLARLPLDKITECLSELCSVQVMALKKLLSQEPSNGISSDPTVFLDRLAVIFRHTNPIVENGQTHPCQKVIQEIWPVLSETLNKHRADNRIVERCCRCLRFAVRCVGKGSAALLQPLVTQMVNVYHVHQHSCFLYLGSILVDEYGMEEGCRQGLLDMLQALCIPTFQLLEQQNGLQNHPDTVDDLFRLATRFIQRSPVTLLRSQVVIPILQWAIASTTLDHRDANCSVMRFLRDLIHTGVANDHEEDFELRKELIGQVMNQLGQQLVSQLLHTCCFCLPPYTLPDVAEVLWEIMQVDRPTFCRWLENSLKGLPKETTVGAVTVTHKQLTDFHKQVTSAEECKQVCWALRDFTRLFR

[2] = molecular target: T2, Transportin 3 (TNPO3), full-length wild type (human) (UniProt Q9Y5L0); assay: NMR titration; 1H NMR spectra of 50 µM peptide free and with a stoichiometric amount (50 µM) of TNPO3 WT; line broadening of peptide signals; both purified
T2 sequence: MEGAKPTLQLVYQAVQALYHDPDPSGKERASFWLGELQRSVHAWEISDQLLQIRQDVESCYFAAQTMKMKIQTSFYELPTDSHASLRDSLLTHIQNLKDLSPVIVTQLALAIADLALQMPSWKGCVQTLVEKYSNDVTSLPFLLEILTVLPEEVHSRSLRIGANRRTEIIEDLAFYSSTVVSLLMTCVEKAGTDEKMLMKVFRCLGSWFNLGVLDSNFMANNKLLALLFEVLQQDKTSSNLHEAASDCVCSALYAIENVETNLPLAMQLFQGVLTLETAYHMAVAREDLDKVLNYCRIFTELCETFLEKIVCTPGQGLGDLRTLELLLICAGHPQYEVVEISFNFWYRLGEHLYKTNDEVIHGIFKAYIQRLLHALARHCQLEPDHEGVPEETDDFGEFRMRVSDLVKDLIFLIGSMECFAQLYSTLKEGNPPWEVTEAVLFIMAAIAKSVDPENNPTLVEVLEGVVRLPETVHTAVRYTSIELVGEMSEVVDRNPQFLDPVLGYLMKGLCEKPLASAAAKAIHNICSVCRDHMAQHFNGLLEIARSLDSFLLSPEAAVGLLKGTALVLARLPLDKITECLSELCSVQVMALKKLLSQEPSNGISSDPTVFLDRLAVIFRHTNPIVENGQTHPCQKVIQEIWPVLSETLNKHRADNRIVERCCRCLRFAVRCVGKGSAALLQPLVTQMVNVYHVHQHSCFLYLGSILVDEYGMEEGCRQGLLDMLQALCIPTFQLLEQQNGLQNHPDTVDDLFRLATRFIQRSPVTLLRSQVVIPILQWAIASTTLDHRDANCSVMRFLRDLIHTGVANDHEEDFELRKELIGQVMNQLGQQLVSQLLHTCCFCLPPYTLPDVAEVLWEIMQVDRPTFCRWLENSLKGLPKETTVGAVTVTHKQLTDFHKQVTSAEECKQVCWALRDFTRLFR

GGSYRDSYDSAATHNE [CIRBP (157-172) synthetic peptide, Y167A]
binding [1]: binds weakly

YYDYEIERFWRGGQYENFRV (peptide, UniProt Q86VM9 371-390) [ZCH18 (371-390) synthetic peptide]
binding [2]: binds

GGSYADSYDSYATHNE [CIRBP (157-172) synthetic peptide, R161A]
binding [1]: no binding (tested: 100 μM ligand into 10 μM TNPO3)

GGSYRDSADSYATHNE [CIRBP (157-172) synthetic peptide, Y164A]
binding [1]: no binding (tested: 100 μM ligand into 10 μM TNPO3)
